Laboratory results reported in paper PMC5736175, “Nicotinic alpha 7 receptor agonists EVP-6124 and BMS-933043, attenuate scopolamine-induced deficits in visuo-spatial paired associates learning” (PLoS ONE, 2017).
Values joined by “and” are separate entries in the source; they are usually repeats but may differ in a detail not shown here. Equal entries are not always repeated. Structures can show the parent of a compound that is named as a salt.

Legend:
[1] = test system: scopolamine-treated cynomolgus monkeys; experiment: Scopolamine-induced impairment of vsPAL task performance, treatment + scopolamine; assay type: in vivo, cynomolgus monkeys (Macaca Fasicularis)
Procedure: Doses cited refer to the free base form of the compounds. […] All drugs were administered intramuscularly (i.m.) in a dosing volume of 0.1–0.2 ml/kg.
On days when compound testing occurred, approximately half the cohort received one dose and the remainder another dose of the same compound and therefore dose order was staggered between animals. With the exception of EVP-6124, all other compounds were tested in a single dose response study.
Cohen’s d values of >0.2, >0.5 and >0.8 are described using the conventions of small, medium, and large effects, respectively.

[2] = Plasma pharmacokinetics in satellite animals (LC-MS/MS), 60 min after i.m. dose; conditions: for concentration at 60 min: cynomolgus monkey, in vivo, nM total compound in plasma from satellite animals
Procedure: For all compounds, plasma pharmacokinetic studies were conducted in a separate cohort of cynomolgus monkeys (N = 2–3 subjects per dose) before beginning vsPAL testing to help guide dose selection. Blood samples were obtained with the animals awake and sitting in a primate chair.
Plasma concentrations of test compounds were determined using LC-MS/MS assays. In brief, 50 μL plasma and sample containing compounds was extracted by protein precipitation method with 150 μL acetonitrile containing an internal standard. A 5 μL sample of supernatant was injected into the LC-MS/MS system. Analytes were separated by reversed phase chromatography and detection of each analyte was achieved through selected reaction monitoring mode of mass spectrometry. Samples were quantified by calculated peak area ratio of analyte and internal standard against a calibration curve.

SMILES: COc1cc2c(cc1OC)C(=O)C(CC1CCN(Cc3ccccc3)CC1)C2 (stereo not shown) [Donepezil, Donepezil hydrochloride]
- Average Response Latency ([1]; Donepezil 0.03 mg/kg + Scopolamine, individual animals): 2165.8 ms
- % Completion ([1]; Donepezil 0.3 mg/kg + Scopolamine, group MEAN of 6 animals): 77.8%
- nM total compound in plasma from satellite animals, 60 min ([2]; 0.03 mg/kg i.m., individual subjects): 12.0 nM and 3.7 nM and 6.5 nM
- nM total compound in plasma from satellite animals, 60 min ([2]; 0.10 mg/kg i.m., individual subjects): 21.7 nM
- nM total compound in plasma from satellite animals, 60 min ([2]; 0.30 mg/kg i.m., individual subjects): 104.7 nM
- concentration at 60 min ([2]; 0.03 mg/kg, 0.03 mg/kg i.m., mean): 7.4 nM
- concentration at 60 min ([2]; 0.1 mg/kg, 0.10 mg/kg i.m., individual subjects): 16.6 nM
- concentration at 60 min ([2]; 0.1 mg/kg, 0.10 mg/kg i.m., mean): 19.2 nM
- concentration at 60 min ([2]; 0.3 mg/kg, 0.30 mg/kg i.m., individual subjects): 75.9 nM
- concentration at 60 min ([2]; 0.3 mg/kg, 0.30 mg/kg i.m., mean): 90.3 nM
